From article PMC3039673
Results are given in words; binding and its absence hold for the method and conditions named. In cells and extracts the contact can be indirect. Some entries that bind do so weakly or less than the wild type.

T1: SNW1 (human (endogenous in MDA-MB-231)), Q13573
T1 chain: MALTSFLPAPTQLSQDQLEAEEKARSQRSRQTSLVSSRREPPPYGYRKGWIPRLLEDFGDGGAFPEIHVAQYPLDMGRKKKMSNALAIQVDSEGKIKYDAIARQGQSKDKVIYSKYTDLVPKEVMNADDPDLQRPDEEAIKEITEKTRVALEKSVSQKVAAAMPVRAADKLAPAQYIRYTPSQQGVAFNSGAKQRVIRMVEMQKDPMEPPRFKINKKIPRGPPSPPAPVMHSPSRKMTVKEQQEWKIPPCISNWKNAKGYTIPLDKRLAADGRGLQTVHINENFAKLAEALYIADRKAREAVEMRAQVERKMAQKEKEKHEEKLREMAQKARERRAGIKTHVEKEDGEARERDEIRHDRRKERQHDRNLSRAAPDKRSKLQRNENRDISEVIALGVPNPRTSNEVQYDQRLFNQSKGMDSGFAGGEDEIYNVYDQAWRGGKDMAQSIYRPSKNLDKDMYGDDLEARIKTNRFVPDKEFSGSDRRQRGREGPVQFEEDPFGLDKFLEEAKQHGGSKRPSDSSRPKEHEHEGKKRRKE

T2: Smad4 (human (endogenous in MDA-MB-231)), Q13485
T2 chain: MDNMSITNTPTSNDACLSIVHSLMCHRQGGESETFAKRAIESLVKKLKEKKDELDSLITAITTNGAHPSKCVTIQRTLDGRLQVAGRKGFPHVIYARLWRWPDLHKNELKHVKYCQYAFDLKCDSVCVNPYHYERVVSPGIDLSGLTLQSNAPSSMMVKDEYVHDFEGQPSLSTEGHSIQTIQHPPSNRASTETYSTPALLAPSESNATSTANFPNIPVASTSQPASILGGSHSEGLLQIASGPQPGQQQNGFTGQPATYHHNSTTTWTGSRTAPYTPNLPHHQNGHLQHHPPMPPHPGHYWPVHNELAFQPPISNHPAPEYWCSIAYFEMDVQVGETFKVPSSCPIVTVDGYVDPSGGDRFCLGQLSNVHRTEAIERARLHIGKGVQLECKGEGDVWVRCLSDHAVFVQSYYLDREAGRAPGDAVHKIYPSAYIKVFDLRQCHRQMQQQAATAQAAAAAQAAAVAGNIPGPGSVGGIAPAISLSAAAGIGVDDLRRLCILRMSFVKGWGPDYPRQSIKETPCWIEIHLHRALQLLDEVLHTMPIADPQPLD

T3: SNW1 (human (endogenous in MDA-MB-231)) (UniProt Q13573)
T3 sequence: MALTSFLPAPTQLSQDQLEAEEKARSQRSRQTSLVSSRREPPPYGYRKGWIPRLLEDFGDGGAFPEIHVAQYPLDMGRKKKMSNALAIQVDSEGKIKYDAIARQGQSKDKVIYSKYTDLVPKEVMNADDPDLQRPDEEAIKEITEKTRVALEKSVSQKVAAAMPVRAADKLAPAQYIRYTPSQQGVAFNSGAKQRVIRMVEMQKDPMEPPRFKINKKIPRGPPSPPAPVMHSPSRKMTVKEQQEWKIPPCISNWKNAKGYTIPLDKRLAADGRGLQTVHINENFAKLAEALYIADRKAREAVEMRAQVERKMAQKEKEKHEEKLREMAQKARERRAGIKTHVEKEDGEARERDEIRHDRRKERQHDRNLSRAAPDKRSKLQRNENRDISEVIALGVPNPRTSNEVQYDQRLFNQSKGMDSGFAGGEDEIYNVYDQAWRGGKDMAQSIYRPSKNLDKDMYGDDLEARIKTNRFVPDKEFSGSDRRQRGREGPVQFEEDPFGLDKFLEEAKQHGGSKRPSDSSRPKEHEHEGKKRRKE

T4: Ski (human (endogenous in MDA-MB-231)) (UniProt P12755)
T4 sequence: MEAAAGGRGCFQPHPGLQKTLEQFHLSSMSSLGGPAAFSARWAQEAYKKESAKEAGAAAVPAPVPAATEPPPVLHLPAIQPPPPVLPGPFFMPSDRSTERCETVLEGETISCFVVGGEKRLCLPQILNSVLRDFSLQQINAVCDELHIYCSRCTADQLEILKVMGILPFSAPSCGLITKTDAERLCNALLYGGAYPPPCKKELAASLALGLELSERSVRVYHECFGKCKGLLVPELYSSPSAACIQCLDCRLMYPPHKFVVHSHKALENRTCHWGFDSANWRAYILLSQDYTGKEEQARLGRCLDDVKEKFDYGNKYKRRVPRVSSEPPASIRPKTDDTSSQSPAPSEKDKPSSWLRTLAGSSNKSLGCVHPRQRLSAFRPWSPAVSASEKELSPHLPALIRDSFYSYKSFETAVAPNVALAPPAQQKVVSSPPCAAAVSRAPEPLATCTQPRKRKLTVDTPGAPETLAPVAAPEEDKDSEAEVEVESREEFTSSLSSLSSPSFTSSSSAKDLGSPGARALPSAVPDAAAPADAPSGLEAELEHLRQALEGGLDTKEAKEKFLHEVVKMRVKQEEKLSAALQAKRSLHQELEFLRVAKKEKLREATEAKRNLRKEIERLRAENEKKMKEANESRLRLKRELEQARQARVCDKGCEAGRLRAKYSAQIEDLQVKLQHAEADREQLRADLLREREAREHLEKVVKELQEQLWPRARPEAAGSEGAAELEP

B1: Smad2, Q15796 1-467 (protein)
chain: MSSILPFTPPVVKRLLGWKKSAGGSGGAGGGEQNGQEEKWCEKAVKSLVKKLKKTGRLDELEKAITTQNCNTKCVTIPSTCSEIWGLSTPNTIDQWDTTGLYSFSEQTRSLDGRLQVSHRKGLPHVIYCRLWRWPDLHSHHELKAIENCEYAFNLKKDEVCVNPYHYQRVETPVLPPVLVPRHTEILTELPPLDDYTHSIPENTNFPAGIEPQSNYIPETPPPGYISEDGETSDQQLNQSMDTGSPAELSPTTLSPVNHSLDLQPVTYSEPAFWCSIAYYELNQRVGETFHASQPSLTVDGFTDPSNSERFCLGLLSNVNRNATVEMTRRHIGRGVRLYYIGGEVFAECLSDSAIFVQSPNCNQRYGWHPATVCKIPPGCNLKIFNNQEFAALLAQSVNQGFEAVYQLTRMCTIRMSFVKGWGAEYRRQTVTSTPCWIELHLNGPLQWLDKVLTQMGSPSVRCSSMS
B2: Smad3, P84022 1-425 (protein)
chain: MSSILPFTPPIVKRLLGWKKGEQNGQEEKWCEKAVKSLVKKLKKTGQLDELEKAITTQNVNTKCITIPRSLDGRLQVSHRKGLPHVIYCRLWRWPDLHSHHELRAMELCEFAFNMKKDEVCVNPYHYQRVETPVLPPVLVPRHTEIPAEFPPLDDYSHSIPENTNFPAGIEPQSNIPETPPPGYLSEDGETSDHQMNHSMDAGSPNLSPNPMSPAHNNLDLQPVTYCEPAFWCSISYYELNQRVGETFHASQPSMTVDGFTDPSNSERFCLGLLSNVNRNAAVELTRRHIGRGVRLYYIGGEVFAECLSDSAIFVQSPNCNQRYGWHPATVCKIPPGCNLKIFNNQEFAALLAQSVNQGFEAVYQLTRMCTIRMSFVKGWGAEYRRQTVTSTPCWIELHLNGPLQWLDKVLTQMGSPSIRCSSVS
B3: p-Smad2, Q15796 1-467 (protein)
chain: MSSILPFTPPVVKRLLGWKKSAGGSGGAGGGEQNGQEEKWCEKAVKSLVKKLKKTGRLDELEKAITTQNCNTKCVTIPSTCSEIWGLSTPNTIDQWDTTGLYSFSEQTRSLDGRLQVSHRKGLPHVIYCRLWRWPDLHSHHELKAIENCEYAFNLKKDEVCVNPYHYQRVETPVLPPVLVPRHTEILTELPPLDDYTHSIPENTNFPAGIEPQSNYIPETPPPGYISEDGETSDQQLNQSMDTGSPAELSPTTLSPVNHSLDLQPVTYSEPAFWCSIAYYELNQRVGETFHASQPSLTVDGFTDPSNSERFCLGLLSNVNRNATVEMTRRHIGRGVRLYYIGGEVFAECLSDSAIFVQSPNCNQRYGWHPATVCKIPPGCNLKIFNNQEFAALLAQSVNQGFEAVYQLTRMCTIRMSFVKGWGAEYRRQTVTSTPCWIELHLNGPLQWLDKVLTQMGSPSVRCSSMS
modifications: here or on the partner: phosphorylated (p-Smad2; sites not given)
B4: Ski (protein, UniProt P12755 1-728)
chain: MEAAAGGRGCFQPHPGLQKTLEQFHLSSMSSLGGPAAFSARWAQEAYKKESAKEAGAAAVPAPVPAATEPPPVLHLPAIQPPPPVLPGPFFMPSDRSTERCETVLEGETISCFVVGGEKRLCLPQILNSVLRDFSLQQINAVCDELHIYCSRCTADQLEILKVMGILPFSAPSCGLITKTDAERLCNALLYGGAYPPPCKKELAASLALGLELSERSVRVYHECFGKCKGLLVPELYSSPSAACIQCLDCRLMYPPHKFVVHSHKALENRTCHWGFDSANWRAYILLSQDYTGKEEQARLGRCLDDVKEKFDYGNKYKRRVPRVSSEPPASIRPKTDDTSSQSPAPSEKDKPSSWLRTLAGSSNKSLGCVHPRQRLSAFRPWSPAVSASEKELSPHLPALIRDSFYSYKSFETAVAPNVALAPPAQQKVVSSPPCAAAVSRAPEPLATCTQPRKRKLTVDTPGAPETLAPVAAPEEDKDSEAEVEVESREEFTSSLSSLSSPSFTSSSSAKDLGSPGARALPSAVPDAAAPADAPSGLEAELEHLRQALEGGLDTKEAKEKFLHEVVKMRVKQEEKLSAALQAKRSLHQELEFLRVAKKEKLREATEAKRNLRKEIERLRAENEKKMKEANESRLRLKRELEQARQARVCDKGCEAGRLRAKYSAQIEDLQVKLQHAEADREQLRADLLREREAREHLEKVVKELQEQLWPRARPEAAGSEGAAELEP
B5: SNW1 (protein, UniProt Q13573 1-536)
chain: MALTSFLPAPTQLSQDQLEAEEKARSQRSRQTSLVSSRREPPPYGYRKGWIPRLLEDFGDGGAFPEIHVAQYPLDMGRKKKMSNALAIQVDSEGKIKYDAIARQGQSKDKVIYSKYTDLVPKEVMNADDPDLQRPDEEAIKEITEKTRVALEKSVSQKVAAAMPVRAADKLAPAQYIRYTPSQQGVAFNSGAKQRVIRMVEMQKDPMEPPRFKINKKIPRGPPSPPAPVMHSPSRKMTVKEQQEWKIPPCISNWKNAKGYTIPLDKRLAADGRGLQTVHINENFAKLAEALYIADRKAREAVEMRAQVERKMAQKEKEKHEEKLREMAQKARERRAGIKTHVEKEDGEARERDEIRHDRRKERQHDRNLSRAAPDKRSKLQRNENRDISEVIALGVPNPRTSNEVQYDQRLFNQSKGMDSGFAGGEDEIYNVYDQAWRGGKDMAQSIYRPSKNLDKDMYGDDLEARIKTNRFVPDKEFSGSDRRQRGREGPVQFEEDPFGLDKFLEEAKQHGGSKRPSDSSRPKEHEHEGKKRRKE

Columns and labels:
Assay in all cases: co-IP; endogenous proteins; MDA-MB-231 cells preincubated 3 h with 50 uM MG132, induced or not with 2 ng/ml TGF-beta for 1 h; lysed in 150 mM co-IP buffer; IP with antibodies against Smad4, SNW1 or Ski, beads alone as negative control; Western blot
[1] = target: T1, SNW1 (human (endogenous in …)); conditions: remark: other sources report otherwise
[2] = target: T2, Smad4 (human (endogenous in …)); conditions: remark: other sources report otherwise
[3] = target: Smad4 (human (endogenous in MDA-MB-231)) (UniProt Q13485)
[4] = target: T3, SNW1 (human (endogenous in MDA-MB-231))
[5] = target: T4, Ski (human (endogenous in MDA-MB-231))

| Binder | binding [1] | binding [2] | binding [3] | binding [4] | binding [5] |
| --- | --- | --- | --- | --- | --- |
| B1 | no binding | binds |  |  |  |
| B2 | no binding | binds |  |  |  |
| B3 | no binding | binds |  |  |  |
| B4 |  |  | binds | no binding |  |
| B5 |  |  | no binding |  | no binding |
